Experimental data as given in the supplement of paper PMC10849652.
The list shows a part of the results.

Chains of the proteins cited; added tags and fusions are not shown. Lines headed by an entry give the natural chain unless they say otherwise; changes in a name come on top.
UniProt Q8IUG5: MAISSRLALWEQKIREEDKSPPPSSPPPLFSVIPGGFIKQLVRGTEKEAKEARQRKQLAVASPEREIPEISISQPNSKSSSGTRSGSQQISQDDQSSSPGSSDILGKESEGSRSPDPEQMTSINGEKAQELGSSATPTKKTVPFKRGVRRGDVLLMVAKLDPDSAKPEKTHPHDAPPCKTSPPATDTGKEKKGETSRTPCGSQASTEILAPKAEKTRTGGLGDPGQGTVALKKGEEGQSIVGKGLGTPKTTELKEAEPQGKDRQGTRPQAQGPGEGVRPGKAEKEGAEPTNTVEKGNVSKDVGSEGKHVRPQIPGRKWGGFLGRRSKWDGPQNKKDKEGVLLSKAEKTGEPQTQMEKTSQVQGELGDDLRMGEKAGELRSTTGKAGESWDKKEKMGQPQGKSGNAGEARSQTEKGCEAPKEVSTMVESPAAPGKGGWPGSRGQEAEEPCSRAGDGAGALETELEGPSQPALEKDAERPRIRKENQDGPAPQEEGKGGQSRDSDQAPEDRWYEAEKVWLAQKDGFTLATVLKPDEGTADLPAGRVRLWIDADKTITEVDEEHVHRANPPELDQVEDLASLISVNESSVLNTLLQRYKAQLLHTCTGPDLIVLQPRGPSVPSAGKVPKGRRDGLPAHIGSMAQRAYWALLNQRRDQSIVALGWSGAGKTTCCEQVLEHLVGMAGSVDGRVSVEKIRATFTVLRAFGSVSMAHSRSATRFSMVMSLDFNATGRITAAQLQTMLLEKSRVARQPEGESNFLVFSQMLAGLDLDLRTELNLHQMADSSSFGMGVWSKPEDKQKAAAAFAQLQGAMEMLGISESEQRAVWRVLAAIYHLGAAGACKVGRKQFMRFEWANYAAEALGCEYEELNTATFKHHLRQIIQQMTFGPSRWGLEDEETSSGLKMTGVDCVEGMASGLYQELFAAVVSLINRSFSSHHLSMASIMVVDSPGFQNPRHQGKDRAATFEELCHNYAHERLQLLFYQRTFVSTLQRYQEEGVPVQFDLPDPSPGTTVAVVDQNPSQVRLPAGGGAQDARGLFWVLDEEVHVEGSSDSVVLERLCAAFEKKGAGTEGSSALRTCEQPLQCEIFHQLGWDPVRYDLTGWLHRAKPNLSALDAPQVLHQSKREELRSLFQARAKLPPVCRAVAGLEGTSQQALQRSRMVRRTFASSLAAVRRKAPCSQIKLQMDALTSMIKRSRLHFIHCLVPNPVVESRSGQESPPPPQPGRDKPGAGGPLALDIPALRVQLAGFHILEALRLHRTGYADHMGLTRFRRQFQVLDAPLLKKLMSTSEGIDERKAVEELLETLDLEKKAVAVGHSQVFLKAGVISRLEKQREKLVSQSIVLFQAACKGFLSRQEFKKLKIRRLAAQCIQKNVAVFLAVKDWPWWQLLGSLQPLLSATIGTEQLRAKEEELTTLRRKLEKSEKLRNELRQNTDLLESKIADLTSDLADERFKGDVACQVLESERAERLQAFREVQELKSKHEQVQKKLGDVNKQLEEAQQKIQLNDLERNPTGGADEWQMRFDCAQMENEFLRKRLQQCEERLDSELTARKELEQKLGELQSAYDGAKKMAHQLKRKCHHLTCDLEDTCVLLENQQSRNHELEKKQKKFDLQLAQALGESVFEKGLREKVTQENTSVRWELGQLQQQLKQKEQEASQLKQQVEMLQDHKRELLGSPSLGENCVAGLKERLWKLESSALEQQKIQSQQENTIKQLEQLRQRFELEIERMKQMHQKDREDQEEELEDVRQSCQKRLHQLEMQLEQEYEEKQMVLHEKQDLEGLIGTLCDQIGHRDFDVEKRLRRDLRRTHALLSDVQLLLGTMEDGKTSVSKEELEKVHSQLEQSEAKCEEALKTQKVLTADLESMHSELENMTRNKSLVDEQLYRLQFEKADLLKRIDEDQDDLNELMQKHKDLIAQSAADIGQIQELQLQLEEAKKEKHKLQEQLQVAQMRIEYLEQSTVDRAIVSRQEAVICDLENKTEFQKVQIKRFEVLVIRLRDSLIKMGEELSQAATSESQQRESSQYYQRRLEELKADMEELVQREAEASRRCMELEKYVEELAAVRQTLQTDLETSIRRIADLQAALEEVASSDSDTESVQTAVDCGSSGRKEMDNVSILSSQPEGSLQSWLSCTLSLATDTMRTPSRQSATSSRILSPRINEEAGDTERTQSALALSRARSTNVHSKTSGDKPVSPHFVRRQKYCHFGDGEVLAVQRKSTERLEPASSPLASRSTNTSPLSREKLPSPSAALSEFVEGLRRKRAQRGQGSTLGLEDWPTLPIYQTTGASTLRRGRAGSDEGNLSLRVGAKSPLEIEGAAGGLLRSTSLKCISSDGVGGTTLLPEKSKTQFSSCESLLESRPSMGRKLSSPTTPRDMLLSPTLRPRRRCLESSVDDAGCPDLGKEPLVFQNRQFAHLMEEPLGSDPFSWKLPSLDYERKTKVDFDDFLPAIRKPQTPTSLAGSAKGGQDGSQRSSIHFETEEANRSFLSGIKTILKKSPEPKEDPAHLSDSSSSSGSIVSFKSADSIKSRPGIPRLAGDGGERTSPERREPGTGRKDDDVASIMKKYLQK
UniProt O00159, whole entry, looked up: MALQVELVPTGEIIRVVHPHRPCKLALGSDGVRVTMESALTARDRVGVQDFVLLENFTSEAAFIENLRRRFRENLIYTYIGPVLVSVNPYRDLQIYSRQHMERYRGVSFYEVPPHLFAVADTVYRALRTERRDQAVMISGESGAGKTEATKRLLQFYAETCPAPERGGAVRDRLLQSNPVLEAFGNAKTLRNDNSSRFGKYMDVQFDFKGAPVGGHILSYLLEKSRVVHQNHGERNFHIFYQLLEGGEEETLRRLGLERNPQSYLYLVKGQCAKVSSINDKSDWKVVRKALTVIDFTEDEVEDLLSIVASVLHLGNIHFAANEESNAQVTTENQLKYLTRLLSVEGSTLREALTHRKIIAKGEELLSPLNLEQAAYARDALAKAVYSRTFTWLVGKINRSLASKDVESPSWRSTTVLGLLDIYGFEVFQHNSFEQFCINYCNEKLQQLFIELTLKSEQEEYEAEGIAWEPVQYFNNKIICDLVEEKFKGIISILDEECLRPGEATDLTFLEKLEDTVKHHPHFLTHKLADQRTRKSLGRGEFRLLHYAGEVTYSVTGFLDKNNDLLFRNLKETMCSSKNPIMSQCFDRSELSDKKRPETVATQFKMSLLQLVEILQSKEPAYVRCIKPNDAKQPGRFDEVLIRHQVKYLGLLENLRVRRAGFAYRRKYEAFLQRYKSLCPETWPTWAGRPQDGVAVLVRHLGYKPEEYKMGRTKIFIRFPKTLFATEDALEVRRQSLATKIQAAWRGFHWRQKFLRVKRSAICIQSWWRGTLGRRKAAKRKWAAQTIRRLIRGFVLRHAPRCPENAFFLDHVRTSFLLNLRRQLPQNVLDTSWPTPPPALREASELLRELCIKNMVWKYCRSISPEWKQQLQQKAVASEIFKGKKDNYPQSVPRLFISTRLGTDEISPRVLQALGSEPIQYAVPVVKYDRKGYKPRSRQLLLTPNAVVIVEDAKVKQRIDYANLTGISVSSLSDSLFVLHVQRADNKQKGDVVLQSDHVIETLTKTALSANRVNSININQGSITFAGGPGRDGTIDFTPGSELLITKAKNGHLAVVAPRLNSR
UniProt Q14596: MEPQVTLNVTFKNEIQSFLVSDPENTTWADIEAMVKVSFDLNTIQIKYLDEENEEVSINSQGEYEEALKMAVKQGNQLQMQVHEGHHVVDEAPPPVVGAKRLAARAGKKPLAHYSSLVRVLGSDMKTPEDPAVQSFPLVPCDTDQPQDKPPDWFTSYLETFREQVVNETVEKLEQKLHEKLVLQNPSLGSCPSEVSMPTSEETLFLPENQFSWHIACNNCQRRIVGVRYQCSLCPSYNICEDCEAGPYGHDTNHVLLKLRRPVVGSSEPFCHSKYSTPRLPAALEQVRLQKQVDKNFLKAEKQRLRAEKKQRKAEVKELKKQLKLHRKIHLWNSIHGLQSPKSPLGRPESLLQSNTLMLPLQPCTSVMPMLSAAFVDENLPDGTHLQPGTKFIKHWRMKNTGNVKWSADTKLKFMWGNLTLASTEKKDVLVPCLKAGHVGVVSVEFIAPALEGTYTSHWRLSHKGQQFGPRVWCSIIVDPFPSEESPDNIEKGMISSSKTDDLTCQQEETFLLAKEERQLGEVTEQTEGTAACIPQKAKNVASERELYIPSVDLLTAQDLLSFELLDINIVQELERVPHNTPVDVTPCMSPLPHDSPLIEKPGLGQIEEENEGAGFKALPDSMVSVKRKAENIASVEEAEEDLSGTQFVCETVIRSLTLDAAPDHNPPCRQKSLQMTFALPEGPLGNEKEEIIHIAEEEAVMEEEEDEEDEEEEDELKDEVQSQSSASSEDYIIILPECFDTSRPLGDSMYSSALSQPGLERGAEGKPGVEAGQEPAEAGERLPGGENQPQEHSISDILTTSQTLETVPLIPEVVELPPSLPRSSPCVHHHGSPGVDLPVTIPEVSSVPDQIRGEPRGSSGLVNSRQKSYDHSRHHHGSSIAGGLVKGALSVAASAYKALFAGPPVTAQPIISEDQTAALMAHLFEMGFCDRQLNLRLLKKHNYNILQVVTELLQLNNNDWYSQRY
UniProt Q6ZVX7: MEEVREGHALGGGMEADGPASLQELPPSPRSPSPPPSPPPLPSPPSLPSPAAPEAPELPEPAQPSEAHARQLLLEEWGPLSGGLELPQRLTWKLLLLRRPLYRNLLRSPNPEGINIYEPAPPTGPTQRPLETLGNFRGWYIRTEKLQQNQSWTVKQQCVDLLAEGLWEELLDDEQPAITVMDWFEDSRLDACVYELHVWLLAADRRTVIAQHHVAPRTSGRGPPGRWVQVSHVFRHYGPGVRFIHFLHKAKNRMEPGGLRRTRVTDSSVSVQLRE
UniProt Q6N069: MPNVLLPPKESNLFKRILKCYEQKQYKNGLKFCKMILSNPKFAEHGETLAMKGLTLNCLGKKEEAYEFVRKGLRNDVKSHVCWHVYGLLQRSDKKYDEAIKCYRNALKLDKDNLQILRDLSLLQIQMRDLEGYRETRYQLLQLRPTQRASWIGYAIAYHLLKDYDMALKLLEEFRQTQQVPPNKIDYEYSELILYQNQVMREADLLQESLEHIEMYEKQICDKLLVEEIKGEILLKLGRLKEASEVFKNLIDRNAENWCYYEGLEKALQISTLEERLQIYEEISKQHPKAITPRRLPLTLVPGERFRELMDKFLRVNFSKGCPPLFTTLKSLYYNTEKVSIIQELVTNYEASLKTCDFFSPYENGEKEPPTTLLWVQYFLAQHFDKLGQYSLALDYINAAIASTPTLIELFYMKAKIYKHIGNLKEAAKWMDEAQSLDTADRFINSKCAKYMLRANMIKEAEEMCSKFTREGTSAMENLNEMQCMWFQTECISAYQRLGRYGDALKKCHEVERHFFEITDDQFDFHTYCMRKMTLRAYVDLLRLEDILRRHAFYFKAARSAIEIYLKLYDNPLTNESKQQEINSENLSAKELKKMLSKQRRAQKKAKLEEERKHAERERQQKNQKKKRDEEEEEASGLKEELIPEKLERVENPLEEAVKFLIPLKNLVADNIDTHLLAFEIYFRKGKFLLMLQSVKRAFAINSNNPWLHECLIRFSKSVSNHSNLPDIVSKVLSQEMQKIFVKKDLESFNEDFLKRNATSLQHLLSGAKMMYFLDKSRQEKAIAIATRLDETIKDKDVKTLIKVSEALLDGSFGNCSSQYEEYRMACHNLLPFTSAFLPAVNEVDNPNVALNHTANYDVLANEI
UniProt P49321, whole entry, looked up: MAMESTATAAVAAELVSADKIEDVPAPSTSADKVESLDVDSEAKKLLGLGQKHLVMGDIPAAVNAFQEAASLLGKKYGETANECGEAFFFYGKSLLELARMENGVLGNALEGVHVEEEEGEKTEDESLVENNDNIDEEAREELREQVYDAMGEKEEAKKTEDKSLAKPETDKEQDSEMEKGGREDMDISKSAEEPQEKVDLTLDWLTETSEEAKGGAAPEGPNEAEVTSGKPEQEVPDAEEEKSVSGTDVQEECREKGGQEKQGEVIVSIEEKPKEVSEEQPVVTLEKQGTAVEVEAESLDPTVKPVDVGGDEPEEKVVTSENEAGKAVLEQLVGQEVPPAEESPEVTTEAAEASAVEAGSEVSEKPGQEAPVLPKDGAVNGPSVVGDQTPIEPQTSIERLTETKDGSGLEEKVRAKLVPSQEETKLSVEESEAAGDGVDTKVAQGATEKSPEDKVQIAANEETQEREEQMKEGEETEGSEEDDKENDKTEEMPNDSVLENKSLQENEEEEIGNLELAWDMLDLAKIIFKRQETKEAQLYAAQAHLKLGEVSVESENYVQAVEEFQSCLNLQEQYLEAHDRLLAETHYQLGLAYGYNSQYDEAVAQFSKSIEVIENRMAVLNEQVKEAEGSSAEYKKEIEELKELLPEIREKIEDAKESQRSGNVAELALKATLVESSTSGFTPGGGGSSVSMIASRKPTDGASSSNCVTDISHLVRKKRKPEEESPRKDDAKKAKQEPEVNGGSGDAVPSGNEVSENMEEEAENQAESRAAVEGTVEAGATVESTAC

How the values were obtained:
Assay in all cases: log2 fold change, soluble protein after heating vs DMSO (PISA); higher = thermal stabilisation; K562 lysate, 10 uM; active = over 0.2 and 3.5 SD of the protein, either way, in both replicates (recomputed)
[1] = compound: C=CC(=O)N1CCC[C@@H](n2nc(-c3ccc(Oc4ccccc4)cc3)c3c(N)ncnc32)C1 [ibrutinib]
Method in brief: (§1)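 Thermal stability, expressed as log-two fold change relative to solvent controls, is given from duplicates. Crude K562 extract in PBS pH 7.4 with 1 mM MgCl2, at 1 mg/mL protein, was treated with 10 μM compound for 30 min and heated in aliquots for 3 min across 48°C-58°C. After pooling, adjustment to 0.5% NP-40 at 4°C and centrifugation at 21,000xg for 90 min, supernatant protein was measured by TMTpro 16plex LC-MS/MS with channel sums equalised.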

[2] = compound: CC(=O)c1cnc2ccc(-c3cc(Cl)c(O)c(Cl)c3)nc2c1N[C@H]1CC[C@H](CN(C)C)CC1
Method in brief: as §1

[3] = compound: CC(C)C1=C2N=C(C=C(N2N=C1)NCC3=CC=CC=C3)NCCCCCCN
Method in brief: as §1

[4] = compound: CC1=C(C2=C(C=C1)C(=O)C3=CC=CC=C3N2CCCN)C
Method in brief: as §1

[5] = compound: CC1=C(C=C(C=C1)NC(=O)C2=CC(=CC=C2)C(C)(C)C#N)NC3=CC4=C(C=C3)N=CN(C4=O)C
Method in brief: as §1

[6] = compound: CC1=CC=C(C=C1)SC2=C3C=C(SC3=CN=C2)C(=O)N
Method in brief: as §1

[7] = compound: CCCS(=O)(=O)Nc1ccc(F)c(C(=O)c2c[nH]c3ncc(-c4ccc(Cl)cc4)cc23)c1F [vemurafenib]
Method in brief: as §1

[8] = compound: CCCS(=O)(=O)Nc1ccc(F)c(C(=O)c2c[nH]c3ncc(Cl)cc23)c1F
Method in brief: as §1

[9] = compound: CCN(CCCOc1ccc2c(Nc3cc(CC(=O)Nc4cccc(F)c4)[nH]n3)ncnc2c1)CCOP(=O)(O)O [barasertib]
Method in brief: as §1

[10] = compound: CC[C@@H]1C(=O)N(C)c2cnc(Nc3ccc(C(=O)NC4CCN(C)CC4)cc3OC)nc2N1C1CCCC1
Method in brief: as §1

[11] = compound: CC[C@@H]1C(=O)N(C)c2cnc(Nc3ccc(C(=O)N[C@H]4CC[C@H](N5CCN(CC6CC6)CC5)CC4)cc3OC)nc2N1C(C)C [volasertib]
Method in brief: as §1

[12] = compound: CN1CCN(CCOc2cc(OC3CCOCC3)c3c(Nc4c(Cl)ccc5c4OCO5)ncnc3c2)CC1 [saracatinib]
Method in brief: as §1

[13] = compound: CN1CCN(c2nc(C3=C(c4c[nH]c5ccccc45)C(=O)NC3=O)c3ccccc3n2)CC1 [sotrastaurin]
Method in brief: as §1

[14] = compound: CC(C)(C)Cn1c(N)nc2ccc(-c3[nH]c(C(C)(C)C)nc3-c3ccc(F)cc3)nc21 [ralimetinib]
Method in brief: as §1

[15] = compound: CC(C)(O)CC(=O)NCCn1ccc2ncnc(Nc3ccc(Oc4cccc(C(F)(F)F)c4)c(Cl)c3)c21
Method in brief: as §1

[16] = compound: CC1=C(C(CC(=O)N1)C2=CC=C(C=C2)C(F)(F)F)C(=O)NC3=C(C=C4C(=C3)C=NN4)F
Method in brief: as §1

[17] = compound: CC1=C(C=C(C=C1)NC(=O)C2=CC(=CC=C2)N(C)C)NC(=O)C3=CC=C(C=C3)O
Method in brief: as §1

[18] = compound: CCn1c(C(=O)N(C2CC2)C2CC2)cc2c3c(ncn3C)c(Nc3cc(C)n(C)n3)nc21
Method in brief: as §1

[19] = compound: CCn1cc(-c2ccnc3[nH]c(-c4cccc(CN(C)C)c4)cc23)c(-c2ccc(NC(=O)N(C)C)cc2)n1
Method in brief: as §1

[20] = compound: CN1CCC(CNc2ccc3ncc(-c4cccc(OC(F)(F)F)c4)n3n2)CC1
Method in brief: as §1

Measured: log2 fold change

MYO18B isoform 3 (UniProt Q8IUG5)
inactive: [1] 0.163 | [2] 0.015 | [3] 0.154 | [4] -0.017 | [5] 0.017 | [6] -0.006 | [7] -0.058 | [8] -0.057 | [9] 0.003 | [10] -0.155 | [11] -0.066 | [12] -0.002 | [13] -0.059

MYO1C (UniProt O00159)
inactive: [1] 0.037 | [2] 0.031 | [14] 0.075 | [15] -0.032 | [3] -0.009 | [16] -0.03 | [4] 0.017 | [17] 0.021 | [6] 0.06 | [7] -0.016 | [8] 0.039 | [9] -0.012 | [10] -0.042 | [11] -0.046 | [18] 0.101 | [19] -0.025 | [20] -0.018 | [12] -0.019 | [13] 0.028
active: [5] -0.292

MYLK (UniProt Q15746)
active: [10] -0.675
inactive: [1] 0.099 | [2] 0.226 | [16] 0.061 | [5] 0.228 | [6] 0.004 | [7] -0.254 | [8] -0.022 | [9] -0.097 | [11] -0.053 | [19] -0.169 | [20] 0.014 | [13] -0.084

NBR1 (UniProt Q14596)
inactive: [1] -0.082 | [2] 0.024 | [14] 0.001 | [15] -0.018 | [3] 0.003 | [4] -0.089 | [5] -0.055 | [17] 0.035 | [6] 0.046 | [7] -0.033 | [8] 0.025 | [9] 0.003 | [10] -0.158 | [11] 0.064 | [18] 0.054 | [19] 0.225 | [20] -0.041 | [12] 0.076 | [13] 0.071

NCCRP1 (UniProt Q6ZVX7)
inactive: [1] -0.217 | [2] -0.137 | [14] -0.134 | [15] 0.684 | [4] 0.328 | [5] 0.149 | [17] 0.013 | [6] 0.052 | [8] -0.247 | [9] 0.28 | [11] 0.134 | [18] 0.136 | [19] 0.05 | [20] -0.144 | [12] -0.018 | [13] 0.115

MYH6 (UniProt P13533)
active: [1] 0.793
inactive: [2] -0.017 | [14] 0.045 | [15] -0.157 | [3] 0.01 | [5] 0.047 | [17] -0.081 | [6] -0.172 | [8] -0.081 | [9] 0.006 | [10] 0.215 | [11] 0.084 | [18] -0.137 | [13] -0.017

NAXD (UniProt Q8IW45)
inactive: [1] 0.059 | [2] -0.019 | [14] -0.021 | [15] -0.047 | [3] 0.006 | [16] -0.003 | [4] -0.036 | [5] 0.04 | [17] -0.001 | [6] 0.016 | [7] -0.029 | [8] 0.025 | [9] 0.046 | [10] 0.11 | [11] 0.04 | [18] -0.075 | [19] -0.04 | [20] 0.082 | [12] 0.027 | [13] 0.016

NAA16 (UniProt Q6N069)
active: [7] 0.902
inactive: [1] -0.047 | [2] 0.097 | [14] -0.179 | [15] 0.085 | [16] 0.092 | [4] 0.105 | [17] 0.147 | [6] 0.062 | [8] -0.048 | [9] 0.246 | [10] -0.049 | [11] -0.078 | [18] 0.057 | [12] -0.012

MYADM (UniProt Q96S97)
inactive: [1] 0.155 | [2] 0.04 | [14] 0.114 | [15] -0.03 | [3] 0.052 | [16] -0.043 | [4] 0.06 | [5] 0 | [17] 0.009 | [6] 0.01 | [7] -0.062 | [8] 0.014 | [9] 0.075 | [10] 0.16 | [11] -0.007 | [18] -0.054 | [19] -0.059 | [20] 0.039 | [12] 0.039 | [13] 0.001

2 entries picked at random from those above:
NCCRP1 (UniProt Q6ZVX7)
inactive: [1] -0.217 | [2] -0.137 | [14] -0.134 | [15] 0.684 | [4] 0.328 | [5] 0.149 | [17] 0.013 | [6] 0.052 | [8] -0.247 | [9] 0.28 | [11] 0.134 | [18] 0.136 | [19] 0.05 | [20] -0.144 | [12] -0.018 | [13] 0.115

MYADM (UniProt Q96S97)
inactive: [1] 0.155 | [2] 0.04 | [14] 0.114 | [15] -0.03 | [3] 0.052 | [16] -0.043 | [4] 0.06 | [5] 0 | [17] 0.009 | [6] 0.01 | [7] -0.062 | [8] 0.014 | [9] 0.075 | [10] 0.16 | [11] -0.007 | [18] -0.054 | [19] -0.059 | [20] 0.039 | [12] 0.039 | [13] 0.001

(listing goes on)

NASP isoform 2 (UniProt P49321)
inactive: [1] -0.226 | [2] -0.001 | [6] 0 | [8] -0.016 | [9] 0.01 | [11] 0.017 | [19] 0.889 | [20] -0.736

NACA4P (UniProt Q9BZK3)
inactive: [1] 0.115 | [2] 0.046 | [14] 0.037 | [15] -0.09 | [3] 0.06 | [16] 0.053 | [4] -0.011 | [5] 0.043 | [17] 0.003 | [6] 0.004 | [7] -0.011 | [8] -0.009 | [9] -0.148 | [10] 0.085 | [11] -0.019 | [18] -0.213 | [12] 0.035 | [13] 0.009

MYO9A isoform 4 (UniProt B2RTY4)
inactive: [1] -0.057 | [2] 0.016 | [14] 0.022 | [15] 0.068 | [3] 0.03 | [16] -0.031 | [4] -0.142 | [5] -0.037 | [17] 0.043 | [6] -0.005 | [8] 0.023 | [9] 0.053 | [11] -0.028 | [18] -0.019 | [19] -0.021 | [20] 0.002 | [12] -0.068 | [13] 0.093
active: [7] 0.248

N4BP1 (UniProt O75113)
inactive: [1] 0.022 | [2] -0.069 | [14] 0.011 | [15] -0.01 | [3] 0.018 | [16] 0.051 | [4] 0.042 | [5] 0.031 | [17] 0.006 | [6] -0.019 | [7] -0.008 | [8] 0.007 | [9] 0.006 | [10] -0.04 | [11] 0.001 | [18] 0 | [19] 0.018 | [20] -0.035 | [12] 0.004 | [13] -0.006

NCKIPSD (UniProt Q9NZQ3)
inactive: [1] -0.028 | [2] 0.009 | [14] 0.026 | [15] 0.001 | [3] 0.015 | [16] -0.044 | [4] -0.008 | [5] -0.094 | [17] -0.014 | [6] -0.01 | [7] 0.036 | [8] 0.005 | [9] 0.05 | [10] -0.051 | [11] -0.071 | [18] 0.066 | [19] -0.03 | [20] -0.029 | [12] -0.012 | [13] 0.015
